Some compounds share one wording; it may come from a single statement.
test: Chemical reactivity with MTT (without cells); conditions: 4 h at 37 °C, DMEM:F12 without cells

Reaction with MTT, No significant reaction was detected:
O=C1CC(c2ccccc2)=Nc2cc(F)c(F)cc2N1 [Compound 9, 7,8-Difluoro-4-phenyl-1H-1,5-benzodiazepin-2(3H)-one]
O=C1CC(c2ccccc2)=Nc2ccc(F)cc2N1 [Compound 11, 8-Fluoro-4-phenyl-1H-1,5-benzodiazepin-2(3H)-one]
O=C1CC(c2ccccc2)=Nc2cc(F)ccc2N1 [Compound 13, 7-Fluoro-4-phenyl-H-1,5-benzodiazepin-2(3H)-one]
O=C1CC(c2ccccc2)=Nc2ccccc2N1 [Compound 18, 4-Phenyl-1H-1,5-benzodiazepin-2(3H)-one]

Source: publication PMC8533176, “1,5-Benzodiazepin-2(3H)-ones: In Vitro Evaluation as Antiparkinsonian Agents” (Antioxidants, 2021)
